This test has as its target DSP (mouse (endogenous in DRG)) (UniProt E9Q557). The test can be described thus: proximity ligation; Duolink PLA on 15 µm cryostat sections of L5 DRG of sham and SNI mice (6 weeks post-injury), pairs of primary antibodies from two species; more PLA signals per cell in SNI than in sham.

Protein sequences, listed by entry. Tags and fused reporters are not part of them. Residues count along the entry.
UniProt E9Q557: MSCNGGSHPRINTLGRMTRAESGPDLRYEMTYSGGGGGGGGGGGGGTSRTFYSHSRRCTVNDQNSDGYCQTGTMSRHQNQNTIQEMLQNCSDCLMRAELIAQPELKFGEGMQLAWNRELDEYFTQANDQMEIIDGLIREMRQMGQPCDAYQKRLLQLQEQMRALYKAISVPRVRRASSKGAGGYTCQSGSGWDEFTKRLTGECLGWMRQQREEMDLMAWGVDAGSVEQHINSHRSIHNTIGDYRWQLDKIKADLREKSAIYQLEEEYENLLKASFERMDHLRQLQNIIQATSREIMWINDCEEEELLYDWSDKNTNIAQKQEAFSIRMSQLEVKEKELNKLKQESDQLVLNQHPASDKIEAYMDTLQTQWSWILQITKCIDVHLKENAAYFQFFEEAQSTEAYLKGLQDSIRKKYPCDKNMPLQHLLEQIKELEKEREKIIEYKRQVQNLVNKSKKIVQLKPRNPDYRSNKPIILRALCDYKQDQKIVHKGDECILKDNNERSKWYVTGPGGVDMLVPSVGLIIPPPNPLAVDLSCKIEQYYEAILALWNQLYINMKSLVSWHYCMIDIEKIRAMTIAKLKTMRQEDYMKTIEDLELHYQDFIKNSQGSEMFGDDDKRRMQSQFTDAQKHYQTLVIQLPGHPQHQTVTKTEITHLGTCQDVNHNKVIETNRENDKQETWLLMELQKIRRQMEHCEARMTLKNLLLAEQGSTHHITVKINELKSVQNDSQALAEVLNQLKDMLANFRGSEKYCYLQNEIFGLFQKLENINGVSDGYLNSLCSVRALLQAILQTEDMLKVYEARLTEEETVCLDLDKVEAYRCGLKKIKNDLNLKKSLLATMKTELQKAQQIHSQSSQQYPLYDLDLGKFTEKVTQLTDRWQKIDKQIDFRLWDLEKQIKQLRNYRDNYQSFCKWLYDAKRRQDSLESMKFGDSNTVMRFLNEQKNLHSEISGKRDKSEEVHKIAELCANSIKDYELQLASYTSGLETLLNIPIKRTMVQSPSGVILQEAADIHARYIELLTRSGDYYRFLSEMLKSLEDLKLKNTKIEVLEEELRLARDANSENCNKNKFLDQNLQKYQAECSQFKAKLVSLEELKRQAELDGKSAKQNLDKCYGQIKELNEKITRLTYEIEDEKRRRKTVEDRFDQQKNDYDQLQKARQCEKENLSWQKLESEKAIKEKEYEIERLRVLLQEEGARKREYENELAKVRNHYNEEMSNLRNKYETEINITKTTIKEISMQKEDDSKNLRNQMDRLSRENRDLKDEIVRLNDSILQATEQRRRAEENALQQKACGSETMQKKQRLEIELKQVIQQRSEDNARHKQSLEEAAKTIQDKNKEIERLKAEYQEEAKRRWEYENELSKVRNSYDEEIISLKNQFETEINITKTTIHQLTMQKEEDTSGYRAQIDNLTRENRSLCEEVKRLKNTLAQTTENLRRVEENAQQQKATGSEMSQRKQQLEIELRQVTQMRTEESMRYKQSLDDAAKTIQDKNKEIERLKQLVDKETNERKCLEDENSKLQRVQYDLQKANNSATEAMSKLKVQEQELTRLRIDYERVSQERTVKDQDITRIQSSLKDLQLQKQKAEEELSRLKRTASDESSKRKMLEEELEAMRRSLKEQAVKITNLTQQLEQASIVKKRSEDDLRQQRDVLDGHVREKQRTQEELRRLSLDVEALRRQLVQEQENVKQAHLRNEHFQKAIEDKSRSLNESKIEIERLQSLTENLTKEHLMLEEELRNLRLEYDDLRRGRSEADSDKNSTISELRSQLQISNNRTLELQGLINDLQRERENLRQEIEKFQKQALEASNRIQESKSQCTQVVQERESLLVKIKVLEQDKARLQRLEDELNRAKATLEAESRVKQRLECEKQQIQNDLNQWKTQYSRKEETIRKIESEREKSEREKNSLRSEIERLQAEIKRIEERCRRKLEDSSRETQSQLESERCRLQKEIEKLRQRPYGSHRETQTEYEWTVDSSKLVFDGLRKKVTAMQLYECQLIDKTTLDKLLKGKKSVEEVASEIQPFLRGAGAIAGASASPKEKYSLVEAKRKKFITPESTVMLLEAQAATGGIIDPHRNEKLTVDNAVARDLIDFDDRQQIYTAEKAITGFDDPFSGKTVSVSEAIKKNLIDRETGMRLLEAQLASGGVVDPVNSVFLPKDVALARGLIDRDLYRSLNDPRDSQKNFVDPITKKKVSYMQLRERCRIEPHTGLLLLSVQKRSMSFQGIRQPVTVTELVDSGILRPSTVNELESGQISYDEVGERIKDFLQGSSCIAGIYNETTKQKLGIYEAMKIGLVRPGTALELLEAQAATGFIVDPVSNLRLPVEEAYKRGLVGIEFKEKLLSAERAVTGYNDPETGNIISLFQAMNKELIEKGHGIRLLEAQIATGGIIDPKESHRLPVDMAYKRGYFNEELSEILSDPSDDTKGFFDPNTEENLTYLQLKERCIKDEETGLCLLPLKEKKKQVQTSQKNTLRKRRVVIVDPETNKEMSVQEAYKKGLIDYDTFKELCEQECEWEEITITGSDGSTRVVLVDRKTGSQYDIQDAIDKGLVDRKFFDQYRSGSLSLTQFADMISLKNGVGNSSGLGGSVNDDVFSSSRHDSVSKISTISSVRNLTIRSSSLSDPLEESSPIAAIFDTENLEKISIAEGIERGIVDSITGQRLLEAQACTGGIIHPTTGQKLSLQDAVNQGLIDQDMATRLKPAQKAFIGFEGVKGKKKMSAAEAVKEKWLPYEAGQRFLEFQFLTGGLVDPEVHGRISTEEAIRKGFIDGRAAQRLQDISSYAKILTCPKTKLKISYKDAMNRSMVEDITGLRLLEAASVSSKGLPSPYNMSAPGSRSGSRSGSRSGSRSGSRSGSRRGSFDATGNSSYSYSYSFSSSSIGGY
UniProt P15209, residues 32-821: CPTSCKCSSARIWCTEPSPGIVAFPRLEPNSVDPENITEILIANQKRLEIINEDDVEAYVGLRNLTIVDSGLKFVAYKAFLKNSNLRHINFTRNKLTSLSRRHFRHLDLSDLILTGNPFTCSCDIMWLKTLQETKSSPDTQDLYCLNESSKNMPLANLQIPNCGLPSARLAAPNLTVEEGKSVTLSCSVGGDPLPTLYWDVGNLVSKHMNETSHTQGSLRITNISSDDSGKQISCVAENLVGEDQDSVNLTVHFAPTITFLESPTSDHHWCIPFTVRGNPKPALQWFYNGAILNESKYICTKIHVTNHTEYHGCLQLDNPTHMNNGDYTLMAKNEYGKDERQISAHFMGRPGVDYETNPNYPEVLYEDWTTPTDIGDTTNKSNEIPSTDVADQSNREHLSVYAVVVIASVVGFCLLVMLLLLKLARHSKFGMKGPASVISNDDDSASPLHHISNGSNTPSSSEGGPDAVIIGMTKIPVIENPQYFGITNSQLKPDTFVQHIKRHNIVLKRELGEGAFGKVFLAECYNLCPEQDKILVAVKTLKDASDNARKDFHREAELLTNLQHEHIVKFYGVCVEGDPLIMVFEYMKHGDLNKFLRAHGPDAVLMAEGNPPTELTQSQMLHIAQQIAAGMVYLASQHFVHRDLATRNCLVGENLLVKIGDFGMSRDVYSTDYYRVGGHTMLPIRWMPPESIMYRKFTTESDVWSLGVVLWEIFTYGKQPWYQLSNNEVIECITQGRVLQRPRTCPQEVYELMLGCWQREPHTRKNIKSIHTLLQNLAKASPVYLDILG

No constants are given. Whether binding was seen depends on the method and setting. In cells and extracts the contact can be indirect. Some results given as binding are weak or reduced against the parent protein; the word gives no strength.

For “TrkB (from UniProt P15209 32-821) (receptor)”, the binding result was “binds”.

The values are drawn from publication PMC13335541.
